Test results: publication PMC2631510
These are yes or no findings as the source states them, for the method shown. For part of these data: Binding seen in cells or lysates may run through a third protein. Some entries that bind do so weakly or less than the wild type. Blank lines part the entries; values can stand above or below the substance they belong to.

The chains behind the UniProt entries cited, without tags or fusion partners. Where a name states a change or a piece, a line headed by the entry shows the natural chain unless it says otherwise. A line that says so, or that is headed by a name, gives the form on record, which may keep a tag or linker. Residues count along the entry.
UniProt Q04206: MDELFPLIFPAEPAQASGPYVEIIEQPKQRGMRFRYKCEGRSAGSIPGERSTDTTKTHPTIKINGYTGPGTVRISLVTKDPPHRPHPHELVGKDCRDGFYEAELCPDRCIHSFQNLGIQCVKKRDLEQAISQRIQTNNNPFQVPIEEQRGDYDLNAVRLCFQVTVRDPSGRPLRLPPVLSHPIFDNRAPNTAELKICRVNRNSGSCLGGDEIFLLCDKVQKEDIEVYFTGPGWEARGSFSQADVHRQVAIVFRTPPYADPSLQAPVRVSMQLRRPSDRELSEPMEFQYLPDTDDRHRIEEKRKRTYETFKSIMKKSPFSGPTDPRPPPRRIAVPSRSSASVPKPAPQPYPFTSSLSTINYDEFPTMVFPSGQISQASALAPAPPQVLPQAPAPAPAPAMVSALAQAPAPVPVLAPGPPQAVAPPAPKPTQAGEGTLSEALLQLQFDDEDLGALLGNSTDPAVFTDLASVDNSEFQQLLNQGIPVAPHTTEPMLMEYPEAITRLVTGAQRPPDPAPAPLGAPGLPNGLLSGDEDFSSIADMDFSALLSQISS
ΔNH2p65-tag mutant (in Jurkat cells) (Q04206, form named): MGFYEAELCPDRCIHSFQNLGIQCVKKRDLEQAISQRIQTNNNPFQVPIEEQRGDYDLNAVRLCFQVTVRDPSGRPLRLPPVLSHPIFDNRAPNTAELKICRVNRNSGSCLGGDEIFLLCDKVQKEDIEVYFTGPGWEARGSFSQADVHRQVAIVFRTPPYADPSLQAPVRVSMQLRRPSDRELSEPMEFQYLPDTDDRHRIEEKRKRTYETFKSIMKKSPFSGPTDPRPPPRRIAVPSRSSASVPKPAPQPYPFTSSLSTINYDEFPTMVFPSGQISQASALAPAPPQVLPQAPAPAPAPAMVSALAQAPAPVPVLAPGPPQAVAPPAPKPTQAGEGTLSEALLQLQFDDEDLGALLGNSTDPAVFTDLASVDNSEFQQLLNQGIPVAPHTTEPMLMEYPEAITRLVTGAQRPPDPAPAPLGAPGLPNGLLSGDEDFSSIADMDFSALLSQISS
UniProt P25963: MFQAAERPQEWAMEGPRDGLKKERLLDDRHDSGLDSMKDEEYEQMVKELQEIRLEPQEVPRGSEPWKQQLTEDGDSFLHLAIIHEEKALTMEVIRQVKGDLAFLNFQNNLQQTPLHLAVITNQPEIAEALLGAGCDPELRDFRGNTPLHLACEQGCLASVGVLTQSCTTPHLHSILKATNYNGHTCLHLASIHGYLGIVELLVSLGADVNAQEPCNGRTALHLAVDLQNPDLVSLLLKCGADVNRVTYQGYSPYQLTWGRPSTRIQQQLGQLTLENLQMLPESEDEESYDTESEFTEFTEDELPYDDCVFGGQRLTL
UniProt Q9Z1E3: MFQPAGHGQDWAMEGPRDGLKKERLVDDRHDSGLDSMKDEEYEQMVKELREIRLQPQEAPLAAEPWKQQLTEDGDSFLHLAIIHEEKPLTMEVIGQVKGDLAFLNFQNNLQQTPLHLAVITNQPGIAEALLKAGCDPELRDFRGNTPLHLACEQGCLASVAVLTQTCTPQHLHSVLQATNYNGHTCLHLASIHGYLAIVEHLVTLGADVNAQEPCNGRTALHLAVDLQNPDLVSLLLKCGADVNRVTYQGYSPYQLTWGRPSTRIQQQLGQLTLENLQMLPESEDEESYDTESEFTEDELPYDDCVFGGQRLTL
UniProt P19838, residues 1-433: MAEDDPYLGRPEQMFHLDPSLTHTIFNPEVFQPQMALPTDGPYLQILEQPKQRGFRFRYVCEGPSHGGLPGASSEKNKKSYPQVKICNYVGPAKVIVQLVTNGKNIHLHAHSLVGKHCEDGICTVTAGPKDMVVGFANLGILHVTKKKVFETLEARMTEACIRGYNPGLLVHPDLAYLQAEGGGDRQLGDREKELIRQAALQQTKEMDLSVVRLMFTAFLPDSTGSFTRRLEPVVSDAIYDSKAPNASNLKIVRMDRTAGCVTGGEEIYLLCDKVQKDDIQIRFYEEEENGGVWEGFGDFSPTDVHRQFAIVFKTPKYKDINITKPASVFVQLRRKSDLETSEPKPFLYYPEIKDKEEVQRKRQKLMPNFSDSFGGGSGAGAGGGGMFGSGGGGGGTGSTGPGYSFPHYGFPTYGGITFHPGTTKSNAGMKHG

Columns and labels:
[1] = molecular target: p65 D94E;D97E-tag (in vitro translated) (UniProt Q04206); assay: native gel or EMSA; 3 μg in vitro co-translated proteins (wheat germ) with 32P-labelled HIV enhancer oligonucleotide holding two κB motifs; non-denaturing 6% polyacrylamide gel; the complexes are seen bound to DNA
[2] = molecular target: p65wt-tag (in vitro translated) (UniProt Q04206); assay: as above
[3] = molecular target: p65wt-tag (in 3T3-p65ko cells) (UniProt Q04206); assay: co-IP
[4] = molecular target: ΔNH2p65-tag (in 3T3-p65ko cells) (UniProt Q04206); assay: co-IP
[5] = molecular target: IκBα, endogenous in PBLs (human (endogenous in PBLs)) (UniProt P25963); assay: co-IP
[6] = molecular target: ΔNH2p65-tag mutant (in Jurkat cells) (UniProt Q04206); assay: co-IP
[7] = molecular target: IκBα (in vitro translated) (UniProt P25963); assay: co-IP

binding [3]: binds | binding [4]: binds
Substance: IκBα, endogenous in 3T3-p65ko cells (from UniProt Q9Z1E3 1-314)

binding [6]: binds
Substance: NF-κB1/p50, endogenous in Jurkat cells (from UniProt P19838 1-433)

binding [6]: binds
Substance: endogenous p65wt (p65/RelA) in Jurkat cells (from UniProt Q04206 1-551)

binding [6]: binds
Substance: IκBα, endogenous in Jurkat cells (from UniProt P25963 1-317)

Continued, substance first:

Substance: NF-κB1/p50 (in vitro translated) (from UniProt P19838 1-433)
binding [1]: binds | binding [2]: binds

Substance: ΔNH2p65 (amino-truncated, carboxy-terminal fragment of p65/RelA), endogenous (from UniProt Q04206 98-551) (domain or fragment)
binding [5]: binds

Substance: ΔNH2p65-tag (in vitro translated) (from UniProt Q04206 97-551) (domain or fragment)
binding [7]: binds
